In patent US20160046678A1 (ZYNGENIA, published 2016):
These are yes or no findings as the source states them, for the method shown. Some binding calls cover weakened binding; strength is not graded here.

T1: Angiopoietin-2 (Ang2) (human, UniProt O15123 19-496, biotin label in Examples 22-24)
T1 construct: also called rhAng2; recombinant Ang2
T1 sequence (looked up): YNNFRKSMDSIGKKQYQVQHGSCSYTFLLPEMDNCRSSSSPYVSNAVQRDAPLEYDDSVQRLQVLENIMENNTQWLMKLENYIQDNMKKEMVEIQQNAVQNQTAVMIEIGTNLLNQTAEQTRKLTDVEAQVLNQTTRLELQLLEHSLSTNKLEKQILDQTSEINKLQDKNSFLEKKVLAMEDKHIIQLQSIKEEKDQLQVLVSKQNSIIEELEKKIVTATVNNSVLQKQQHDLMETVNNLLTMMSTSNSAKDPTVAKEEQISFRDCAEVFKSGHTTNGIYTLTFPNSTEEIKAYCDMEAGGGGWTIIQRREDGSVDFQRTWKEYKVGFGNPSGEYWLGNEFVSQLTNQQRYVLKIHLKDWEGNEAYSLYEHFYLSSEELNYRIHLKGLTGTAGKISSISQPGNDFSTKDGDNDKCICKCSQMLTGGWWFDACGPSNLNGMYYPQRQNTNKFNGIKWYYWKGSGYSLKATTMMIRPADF


Molecular target: T1, Angiopoietin-2 (Ang2)
Test: Example 48, method not detailed

Binder | binding
FPPWFQDCFFYPNPPVCY [ANG773] | binds
PSYNIFECFFFPNPPHCY [ANG743] | binds
PSADFAECFFYPNPPQCY [ANG711] | binds
TNQDCYFYPNPPHCFRDH [ANG728] | binds
HSLLHWDCYFYPNPSHCY [ANG766] | binds
SESDCYFYPNPPHCYAVV [ANG744] | binds
DETECYWFPSPAHCYKDS [ANG736] | binds
QLRECYWFPNPSHCYIES [ANG767] | binds
HALECYFYPNPLHCYTQP [ANG774] | binds
GPWECFFYPNPLHCFKEP [ANG710] | binds
YEFRWTDCYFYPNPPHCF [ANG747] | binds
PWSPCYWYPNPRFCYEAS [ANG786] | binds
IVVYSADCFFYPNPRHCY [ANG776] | binds
YRLDLSECYYYPNPLHCY [ANG749] | binds
EHEACYFYPNPPHCYESS [ANG742] | binds
IHKLDLDCYYYPNPPHCY [ANG757] | binds
IVSREYDCYFYPNPTHCY [ANG733] | binds

Binder | binding
ASNDIHDCYFYPNPPHCY [ANG712] | binds
FDEDCYFYPNPPHCYLLS [ANG741] | binds
MIFDCYFFPNPRHCYHEG [ANG715] | binds
AASQTSDCYFYPNPPSCY [ANG752] | binds
DCYFYPNPPHCYTVEGGK [ANG731] | binds
TVYDCYFYPNPGHCYLQL [ANG763] | binds
HPFDCYFYPNPPHCYTRS [ANG745] | binds
FHIDCYFYPNPPHCYTGA [ANG724] | binds
RISSMVECYFYPNPPHCY [ANG798] | binds
LWYTTVNCYFCPNPLHCY [ANG781] | binds
DCYFYPNPPHCYHDNEIE [ANG788] | binds
LILDCYFYPNPPHCYTST [ANG746] | binds
RPSMHMECYFYPNPPYCY [ANG793] | binds
DCYFYPNPPSCYEVQGAS [ANG709] | binds
FSHPFTDCFFYPNPQHCY [ANG762] | binds
KEIDCYFYPNPPHCYGKW [ANG727] | binds

Further lines, results first:

binding | Binder
binds | DPVDCYFYPNPAHCYSTV [ANG775]
binds | LGLDCYFYPNPPDCYHDA [ANG740]
binds | AFVHCYFFPNPQHCYHRL [ANG714]
binds | QPMDCFFYPNPPHCYAEE [ANG732]
binds | MVDECYFYPNPPHCYSNT [ANG721]
binds | NFRECVFYPNPPHCYDFG [ANG726]
binds | DYLSMLECYFYPNPSHCY [ANG782]
binds | GFLTSLDCYFYPNPPHCY [ANG795]
binds | MVFHELDCYFYPNPPHCY [ANG765]
binds | LFENSLGCYFFPNPPHCY [ANG771]
binds | NTNDPFDCFFYPNPPHCY [ANG756]
binds | SMHDCYYYPNPTHCYRGT [ANG734]
binds | LFLNPYDCYFYPNPPQCY [ANG784]
binds | LYPSLLDCYFYPNPTHCY [ANG719]
binds | SDTDCYFYPNPPHCYWDT [ANG713]
binds | TGFECYFYPNPRHCYNDI [ANG718]

binding | Binder
binds | FMTSGVECYFYPNPPHCY [ANG783]
binds | IPLDCYFYPNPPSCYHSY [ANG751]
binds | SYFLTWDCYTYPNPPHCY [ANG716]
binds | PLLPFYDCYFYPNPSHCY [ANG790]
binds | GLVDCYFYPNPPHCYWPH [ANG769]
binds | WLGRLSDCYFYPNPPHCY [ANG723]
binds | LVVDCYFYPNPPHCYDYS [ANG791]
binds | EVPDCYYYPNPPHCYEAN [ANG797]
binds | PLRSYMDCYWYPNPPHCY [ANG722]
binds | RMFDCYFYPNPPLCYNHI [ANG777]
binds | THLDCYFYPNPPHCYSST [ANG755]
binds | QSQNVVECYFYPNPPHCY [ANG748]
binds | LLVDCYYYPNPTHCSKNS [ANG787]
binds | SNAQCYFYPNPLHCYKNA [ANG730]
binds | HQMTQIECYFFPNPQHCY [ANG785]
